Assay results taken from PubChem BioAssay AID2685 (National Center for Advancing Translational Sciences (NCATS), 2010).
The other results are listed elsewhere or left out. Further columns of the screen follow, without active or inactive calls. The list favours compounds with an active or inconclusive main result. Potencies come from curve fits of mixed quality, noted in brackets.

Assay: qHTS Assay for Lipid Storage Modulators in Drosophila S3 Cells;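 for cell number change: cells counted by Cell Tracker Red CMTPX staining in the red channel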
Settings: BODIPY lipid droplet fluorescence, 18-24 h; for cell number change: measured here: cell count max response, cells fed with added oleic acid
Outline: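 Drosophila S3 cells loaded with oleic acid (400 uM, as added) and compounds at several concentrations; lipid droplets imaged by 488-nm laser-scanning cytometry, 500–530 nm intensity and object ratio to cell channel. Percent activity normalized to 20 uM Triacsin C.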

[1] = measured here: lipid fluorescence (Fed channel) AC50, cells fed with added oleic acid
[2] = measured here: cell number channel AC50, cells fed with added oleic acid

Q: What does the source list for `O=C(N/N=C1/CCS(=O)(=O)c2ccc(F)cc21)c1cccnc1`?
A: cell number change: 19.4%; AC50 [1]: 5.8 µM [rising, full curve, poor fit]

Q: Which cell number change does the source give for `COC(=O)c1ccc(-c2ccco2)n1Cc1ccccc1Cl` here?
A: -23.2%

Q: Which results are given for `CC(C)CC(NC(N)=O)C(=O)OCC(=O)Nc1ccc(SC(F)F)cc1` (centres undefined)?
A: cell number change: 13.3%; AC50 [2]: 6.51 µM [rising, single point]; AC50 [1]: 2.59 µM [rising, single point]

Q: What does the source list for `O/N=C1\CC(O)Cc2nonc21` (centres undefined)?
A: cell number change: 3.63%; AC50 [1]: 20.6 µM [rising, single point]

Q: Which cell number change does the source give for `O=c1ccn(Cc2ccccc2)cc1` here?
A: -20.3%

Q: What about the AC50 [1] of the same compound?
A: 29.1 µM [falling, single point]

Q: For `CCC(C)NC(=O)C1c2ccccc2C(=O)N(c2ccc(OC)cc2)C1c1ccc(OC)cc1` (centres undefined), which cell number change is on record?
A: -16%

Q: Which cell number change does the source give for `COc1ccc(S(=O)(=O)Nc2ccccc2C(N)=O)cc1OC` here?
A: -4.44%

Q: What about the AC50 [1] of the same compound?
A: 6.51 µM [falling, single point]

Q: What does the source list for `C=CCOc1ccc(/C=C/C(=O)OCC(=O)NCc2cccs2)cc1`?
A: AC50 [2]: 0.517 µM [falling, full curve, poor fit]; AC50 [1]: 1.3 µM [falling, full curve]

Q: For `CC(=O)Oc1c(Cl)c(N2CCOCC2)c(OC(C)=O)c2ccccc12`, which cell number change is on record?
A: -14.9%

Q: And the AC50 [1]?
A: 6.51 µM [falling, full curve, poor fit]

Q: For `N#CC(C(=O)NC1CC1)c1nc2ccccc2nc1N1CCN(C/C=C/c2ccccc2)CC1` (centres undefined), which cell number change is on record?
A: 38.7%

Q: And the AC50 [2]?
A: 4.61 µM [rising, full curve]

Q: And the AC50 [1]?
A: 9.2 µM [rising, partial curve]

Q: What does the source list for `Cc1cccn2c(=O)c(/C=C(\C#N)S(=O)(=O)c3ccccc3)c(N3CCN(c4ccccc4)CC3)nc12`?
A: cell number change: 52.1%; AC50 [2]: 6.51 µM [falling, single point]; AC50 [1]: 0.651 µM [falling, partial curve, poor fit]

Q: For `CCc1ccc(OCCNC(=O)c2cccs2)cc1`, which cell number change is on record?
A: -50.9%

Q: And the AC50 [2]?
A: 29.1 µM [falling, single point]

Q: What does the source list for `COCCN(C)Cc1nc(C(c2ccccc2)c2ccccc2)no1`?
A: cell number change: -10.8%; AC50 [1]: 2.91 µM [rising, partial curve]

Q: With `CC(C)n1c(SCC(=O)N2CCN(C(=O)c3ccco3)CC2)nc2c1c(=O)n(C)c(=O)n2C` as the compound, how does the AC50 [1] read?
A: 4.61 µM [rising, partial curve, poor fit]

Q: With `CCOC(=O)c1ccccc1C(=O)N1CCOCCOCCOCC1` as the compound, how does the cell number change read?
A: -24.7%

Q: Which AC50 [2] does the source give for `COc1ccc(S(=O)(=O)N2CCN(CC(=O)Nc3ccc(F)c(F)c3)CC2)cc1` here?
A: 4.61 µM [rising, single point]

Q: What does the source list for `Cc1ccc(C)c2c3c([nH]c12)-c1nonc1CC3`?
A: cell number change: -34.9%; AC50 [2]: 29.1 µM [falling, single point]; AC50 [1]: 20.6 µM [falling, single point]

Q: For `CN(C)C1=NCCN1CCCCc1ccccc1`, which cell number change is on record?
A: 14.8%

Q: Which results are given for `CCN(CC)S(=O)(=O)c1cccc(NC(=O)COC(=O)c2cc(C)oc2C)c1`?
A: cell number change: 77.5%; AC50 [2]: 16.4 µM [rising, partial curve]; AC50 [1]: 16.4 µM [rising, partial curve]

Q: With `N#CC1=C(SCc2ccccc2)NC(=O)CC1c1ccco1` (centres undefined) as the compound, how does the cell number change read?
A: -12.1%

Q: What about the AC50 [1] of the same compound?
A: 0.092 µM [falling, full curve, poor fit]

Q: Which cell number change does the source give for `Cc1cc(C(=O)COC(=O)c2ccc(F)cc2F)c(C)n1C1CC1` here?
A: -0.376%

Q: And the AC50 [1]?
A: 29.1 µM [falling, single point]

Q: Which cell number change does the source give for `CCCOc1ccc(Cn2cnc3ccccc32)cc1` here?
A: -31.7%

Q: What about the AC50 [2] of the same compound?
A: 13 µM [falling, single point]

Q: What about the AC50 [1] of the same compound?
A: 18.4 µM [falling, single point]

Q: Which cell number change does the source give for `CCC(C)n1c(-c2ccco2)nc2nc3ccccc3nc21` (centres undefined) here?
A: -15.8%

Q: Which cell number change does the source give for `CCOc1ccc(CN(C(=O)c2oc3ccccc3c2C)C2CCS(=O)(=O)C2)cc1` (centres undefined) here?
A: -9.96%

Q: With `CCC(CC)c1nnc(NC(=O)CCS(=O)(=O)Cc2ccccc2)s1` as the compound, how does the cell number change read?
A: 15.4%

Q: With `COC(=O)N(C)c1nc2ccccc2s1` as the compound, how does the cell number change read?
A: -16.7%

Q: What about the AC50 [1] of the same compound?
A: 2.91 µM [rising, single point]

Q: With `CCn1c(CNc2ccc(F)cc2)nnc1SCCN1CCCCC1` as the compound, how does the cell number change read?
A: 0.14%

Q: And the AC50 [1]?
A: 0.00651 µM [falling, full curve, poor fit]

Q: With `CSC1=NC(C)(C)C=C(/C=C/c2c(Cl)cccc2Cl)N1` as the compound, how does the cell number change read?
A: -4.04%

Q: For `Cc1ccc2nc(-c3ccc(NC(=O)COC(=O)c4ccc(Br)o4)cc3)sc2c1`, which cell number change is on record?
A: 14.3%

Q: What about the AC50 [1] of the same compound?
A: 11.6 µM [rising, partial curve, poor fit]

Q: Which cell number change does the source give for `Cc1cc(OCCN2CCOCC2)ccc1Cl` here?
A: 8.45%

Q: What about the AC50 [1] of the same compound?
A: 0.731 µM [falling, full curve, poor fit]

Q: For `CCc1sc(C(=O)NCCc2ccc(S(N)(=O)=O)cc2)cc1Br`, which cell number change is on record?
A: 20.4%

Q: What about the AC50 [2] of the same compound?
A: 6.51 µM [rising, single point]

Q: And the AC50 [1]?
A: 0.58 µM [falling, single point]

Q: What does the source list for `CN=c1scc(C)n1/N=C/c1ccc(O)cc1O`?
A: cell number change: -22.7%; AC50 [1]: 29.1 µM [falling, single point]

Q: With `Cc1cc(C(=O)CSc2ncn[nH]2)c(C)n1-c1cccc(S(=O)(=O)N2CCOCC2)c1` as the compound, how does the cell number change read?
A: -15.8%

Q: What about the AC50 [1] of the same compound?
A: 13 µM [falling, partial curve]

Q: For `COC(=O)c1cn(Cc2cccnc2)c(=O)c2ccccc12`, which cell number change is on record?
A: 11.5%

Q: And the AC50 [1]?
A: 0.58 µM [rising, single point]

Q: Which cell number change does the source give for `O=C(Oc1cccc(/C=N/Nc2nc(N3CCOCC3)nc(N3CCOCC3)n2)c1)c1ccco1` here?
A: -41.6%

Q: And the AC50 [2]?
A: 18.4 µM [falling, partial curve, poor fit]

Q: What about the AC50 [1] of the same compound?
A: 29.1 µM [falling, partial curve]

Q: For `Cc1ccccc1-n1nc2c(c1NC(=O)COc1ccc(Cl)cc1)CS(=O)C2` (centres undefined), which cell number change is on record?
A: -3.04%

Q: With `CCCc1ccc(C#N)c(SC2CC(=O)N(c3ccc(OC)cc3)C2=O)n1` (centres undefined) as the compound, how does the cell number change read?
A: 30.9%

Q: And the AC50 [1]?
A: 4.11 µM [rising, single point]

Q: What does the source list for `C/C(=N\NC(=O)c1c(Br)c(C)nn1C)c1cccc(NC(=O)c2ccccc2C)c1`?
A: cell number change: 8.12%; AC50 [1]: 16.4 µM [rising, partial curve]

Q: With `CCOc1cc(C(=O)Nc2ccc(S(=O)(=O)N3CCOCC3)cc2)cc(OCC)c1OCC` as the compound, how does the cell number change read?
A: 1.63%

Q: Which cell number change does the source give for `CCn1nnc2cc(C(=O)O)ccc21` here?
A: 32.4%

Q: Which results are given for `COc1ccc(CNCCNC(=O)c2ccco2)c(OC)c1OC`?
A: cell number change: -8.19%; AC50 [2]: 1.16 µM [falling, full curve, poor fit]

Q: For `O=c1[nH]cnc2cc(-c3ccc(Br)cc3)sc12`, which cell number change is on record?
A: -21%

Q: And the AC50 [1]?
A: 29.1 µM [rising, single point]

Q: For `Cc1ccc(CC(SCc2ccccc2)C(=O)O)cc1C` (centres undefined), which cell number change is on record?
A: 23.1%

Q: For `COc1ccccc1NC(=O)c1cccc(S(=O)(=O)N2CCOCC2)c1`, which cell number change is on record?
A: -6.95%

Q: Which cell number change does the source give for `O=S(=O)(Nc1ccc2c(c1)OCO2)c1ccc(F)c(F)c1` here?
A: -49.1%

Q: And the AC50 [2]?
A: 29.1 µM [falling, single point]

Q: What about the AC50 [1] of the same compound?
A: 29.1 µM [falling, single point]

Q: Which cell number change does the source give for `Nc1nonc1C(=O)N1CCCC1` here?
A: -27.8%

Q: And the AC50 [1]?
A: 29.1 µM [falling, single point]

Q: What does the source list for `C=CCNC(=O)c1onc(CSc2ccc(F)cc2)c1C(=O)NCC=C`?
A: cell number change: 6.53%; AC50 [1]: 6.51 µM [rising, single point]

Q: For `C/C(=N/NC(=O)c1ccc(Br)s1)c1ccncc1`, which cell number change is on record?
A: 48.5%

Q: And the AC50 [2]?
A: 23.1 µM [rising, partial curve, poor fit]

Q: For `CCOc1cc(CNCCc2ccc(S(N)(=O)=O)cc2)ccc1OCC(=O)NC1CCCCC1`, which AC50 [1] is on record?
A: 1.3 µM [falling, full curve]

Q: Which cell number change does the source give for `C[C@H](NS(=O)(=O)c1ccc(Cl)cc1)C(=O)OCC(=O)NC(=O)Nc1ccc2c(c1)OCCO2` here?
A: 51.2%

Q: And the AC50 [2]?
A: 3.66 µM [rising, partial curve]

Q: And the AC50 [1]?
A: 1.64 µM [rising, partial curve]

Q: For `CCOC(=O)C(Cc1ccccc1)NC(=O)CCCC(=O)c1ccccc1` (centres undefined), which cell number change is on record?
A: -28.8%

Q: Which results are given for `CCOC(=O)Nc1c(C(=O)OC)[nH]c2cc(OC)ccc12`?
A: cell number change: 37.8%; AC50 [2]: 3.26 µM [rising, full curve]; AC50 [1]: 7.31 µM [rising, partial curve]

Q: Which cell number change does the source give for `CC1(C)Cc2c(sc3c2c(=O)n(Cc2ccccc2)c2nncn32)CO1` here?
A: -0.673%

Q: Which cell number change does the source give for `CC(=O)Nc1ccc(SCCN2CC[C@@H](O)CCC2=O)cc1` here?
A: -44.4%

Q: What about the AC50 [2] of the same compound?
A: 18.4 µM [falling, single point]

Q: With `CCc1ccccc1NC(=S)NNC(=O)c1ccccc1Cl` as the compound, how does the cell number change read?
A: 21.7%

Q: What does the source list for `Cc1cc2nc(C(F)(F)F)[nH]c(=O)n2n1`?
A: cell number change: -1.3%; AC50 [1]: 0.116 µM [falling, full curve, poor fit]

Q: For `O=C(O)C1CCN(c2ccc(S(=O)(=O)N3CCCCC3)cc2[N+](=O)[O-])CC1`, which cell number change is on record?
A: -6.4%

Q: What does the source list for `O=C(/C=C/c1ccc([N+](=O)[O-])cc1)Nc1cccnc1`?
A: cell number change: 55.7%; AC50 [2]: 29.1 µM [rising, single point]

Q: Which cell number change does the source give for `COc1cccc(NC(=S)NC2CC(C)(C)NC(C)(C)C2)c1` here?
A: -8.55%

Q: What about the AC50 [1] of the same compound?
A: 29.1 µM [rising, single point]

Q: For `S=C(NCCc1ccccc1)Nc1ccccc1N1CCOCC1`, which cell number change is on record?
A: 4.31%

Q: And the AC50 [2]?
A: 0.291 µM [falling, single point]

Q: And the AC50 [1]?
A: 6.51 µM [falling, partial curve, poor fit]

Q: Which cell number change does the source give for `Cc1ccc(C)c(N2CCN(C(=O)CCS(=O)(=O)c3ccc4c(c3)NC(=O)C(C)S4)CC2)c1` (centres undefined) here?
A: -43.5%

Q: What about the AC50 [2] of the same compound?
A: 32.6 µM [falling, single point]

Q: What about the AC50 [1] of the same compound?
A: 18.4 µM [falling, single point]

Q: Which results are given for `CCOC(=O)c1ccc(NC(=S)N(CCCN2CCN(C)CC2)Cc2cccs2)cc1`?
A: AC50 [2]: 1.64 µM [rising, partial curve]; AC50 [1]: 29.1 µM [rising, single point]

Q: What does the source list for `Cc1ccc(C(=O)NCCc2ccccc2)cc1N1CCCC1=O`?
A: cell number change: 5.9%; AC50 [1]: 1.84 µM [rising, partial curve]
